Measured values as given in patent publication US12648951B2, “Methods of treating castration-resistant prostate cancer with glucocorticoid receptor antagonists, androgen deprivation therapy and anti-androgen receptor therapy” (University of Chicago, priority 2012, dated 2026).
For at least one compound, name, drawing or mass did not settle the structure.

Key:
[1] = tested on: CRPC patients who have failed chemotherapy; conditions: in vivo; cited from earlier work
CRPC cell lines = assay: Proliferation / growth of castrate-resistant prostate cancer cell lines; format: cell-based, human; conditions: SGK1 and vector expressing cell lines, following Dex
From the text: GR Antagonist Studies. […]. SGK1-FLAG or vector was stably expressed and cellular viability, secreted PSA, and protein lysates were collected.

For `C[C@]12CC[C@H](O)CC1=CC[C@@H]1[C@@H]2CC[C@]2(C)C(c3cccnc3)=CC[C@@H]12` [abiraterone], which “overall survival increased compared to placebo” value [1] is on record?
Its value is 4.6 months.

Which proliferation rates (CRPC cell lines) does the source give for `C[C@@H]1C[C@H]2[C@@H]3CCC4=CC(=O)C=C[C@]4(C)[C@@]3(F)[C@@H](O)C[C@]2(C)[C@@]1(O)C(=O)CO` [Dex, dexamethasone] here?
Its proliferation rates is “slower”.
